Reference: article PMC8262884
Results are given in words; binding and its absence hold for the method and conditions named. Sequences can lack the tags named with a protein.

Molecular target: MYC-tagged UDP-glucose pyrophosphorylase (UGP-MYC) (Trypanosoma brucei) (UniProt D3HTY9)
Assay: native gel or EMSA; BN-PAGE (3 to 12% Bis-Tris) of supernatants of UGP-MYC.i cells treated with 0 or 0.16 mg digitonin per mg protein; Western blot with anti-MYC

binding: no binding
B1: MYC-tagged UDP-glucose pyrophosphorylase (UGP-MYC) (enzyme, UniProt D3HTY9 1-485)
chain: MPLNPPSAFSGAALACLEKMQASGVEEKCIHIFLIQHALVRKGETGYIPEKSISPVESLPFLQGIETKGENTALLRQAVVLKLNGGLGTGMGLNGPKSLLQVKNGQTFLDFTALQLEHFRQVRNCNVPFMLMNSFSTSGETKNFLRKYPTLYEVFDSDIELMQNRVPKIRQDNFFPVTYEADPTCEWVPPGHGDVYTVLYSSGKLDYLLGKGYRYMFISNGDNLGATLDVRLLDYMHEKQLGFLMEVCRRTESDKKGGHLAYKDVIDETTGQTRRRFVLRESAQCPKEDEDSFQNIAKHCFFNTNNIWINLMELKKMMDEQLGVLRLPVMRNPKTVNPQDSQSTKVYQLEVAMGAAISLFDRSEAVVVPRERFAPVKTCSDLLALRSDAYQVTEDQRLVLCEERNGKPPAIDLDGEHYKMIDGFEKLVKGGVPSLRQCTSLTVRGLVEFGADVSVRGNVVIKNLKEEPLIIGSGRVLDNEVVVVE
